Measurements reported in PubChem BioAssay AID504804 (Drosophila RNAi Screening Center, 2011)

Purpose: 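Knock-downs shielding fly cells from apoptosis caused by DNA damage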 (primary screen)
System: Drosophila Kc cells
Reagent: long dsRNA against Drosophila genes, 0.5 µg dsRNA per well
Duration: 96 h (48 h knock-down, then 48 h drug)
Treatment: doxorubicin 5 µg/ml for 48 h, added 48 h after dsRNA
Measurement: 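Luminescent ATP counts per replicate, not normalised, reflecting viable cells after 48 h dsRNA knock-down followed by 48 h of 5 µg/ml doxorubicin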
Scale: raw ATP luminescence: higher = more viable cells, protection from doxorubicin
Rule for the call: 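Active when both duplicate wells lie at least 2 SD above the plate mean and protection is confirmed by rescreening and independent dsRNAs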
The screen tested about 19,000 reagents; this is an unselected part of those with a known target gene and a result. In the full data, 47 (0.25%) were called active. 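Signals are raw, not normalised; exact z-scores behind calls not deposited; actives needed confirmation, so some wells reaching 2 SD are inactive.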 Names joined by + are all predicted targets of the reagent.

obe [DRSC15736] → raw ATP luminescence, replicate 1: 34397; raw ATP luminescence, replicate 2: 21570; activity call: inactive
E(bx) [DRSC08583] → raw ATP luminescence, replicate 1: 62223; raw ATP luminescence, replicate 2: 76110; activity call: inactive
DnaJ-H [DRSC03273] → raw ATP luminescence, replicate 1: 59973; raw ATP luminescence, replicate 2: 66233; activity call: inactive
mxc [DRSC17819] → raw ATP luminescence, replicate 1: 2.82e5; raw ATP luminescence, replicate 2: 2.73e5; activity call: inactive
CG32507 [DRSC20421] → raw ATP luminescence, replicate 1: 2.60e5; raw ATP luminescence, replicate 2: 2.67e5; activity call: inactive
CG17159 + CG17162 [DRSC20899] → raw ATP luminescence, replicate 1: 2.69e5; raw ATP luminescence, replicate 2: 3.25e5; activity call: inactive
CG17159 + CG17162 [DRSC20900] → raw ATP luminescence, replicate 1: 3.16e5; raw ATP luminescence, replicate 2: 3.23e5; activity call: inactive
Prosbeta5 [DRSC07517] → raw ATP luminescence, replicate 1: 31773; raw ATP luminescence, replicate 2: 59767; activity call: inactive

Ordered by “raw ATP luminescence, replicate 2” (low to high): some entries from above
CG32507 [DRSC20421] → raw ATP luminescence, replicate 1: 2.60e5; raw ATP luminescence, replicate 2: 2.67e5; activity call: inactive
mxc [DRSC17819] → raw ATP luminescence, replicate 1: 2.82e5; raw ATP luminescence, replicate 2: 2.73e5; activity call: inactive

Continued:
CG5707 [DRSC08573] → raw ATP luminescence, replicate 1: 60500; raw ATP luminescence, replicate 2: 50863; activity call: inactive
Obp83cd [DRSC12267] → raw ATP luminescence, replicate 1: 66970; raw ATP luminescence, replicate 2: 71530; activity call: inactive
CG14143 [DRSC10146] → raw ATP luminescence, replicate 1: 1.02e5; raw ATP luminescence, replicate 2: 67193; activity call: inactive
Pkc53E [DRSC05636] → raw ATP luminescence, replicate 1: 1.96e5; raw ATP luminescence, replicate 2: 1.50e5; activity call: inactive
Pkc53E [DRSC07510] → raw ATP luminescence, replicate 1: 55940; raw ATP luminescence, replicate 2: 59813; activity call: inactive
CG31534 (retired record) [DRSC12141] → raw ATP luminescence, replicate 1: 20587; raw ATP luminescence, replicate 2: 24470; activity call: inactive
CG31534 (retired record) [DRSC12289] → raw ATP luminescence, replicate 1: 76987; raw ATP luminescence, replicate 2: 71760; activity call: inactive
Ucp4C [DRSC03132] → raw ATP luminescence, replicate 1: 37340; raw ATP luminescence, replicate 2: 46457; activity call: inactive
TTLL5 [DRSC14181] → raw ATP luminescence, replicate 1: 33840; raw ATP luminescence, replicate 2: 46550; activity call: inactive
CG10939 [DRSC06019] → raw ATP luminescence, replicate 1: 61693; raw ATP luminescence, replicate 2: 63700; activity call: inactive
Tsp29Fb [DRSC03233] → raw ATP luminescence, replicate 1: 40697; raw ATP luminescence, replicate 2: 66710; activity call: inactive
